PubChem BioAssay AID504774 | Drosophila RNAi Screening Center – 2011

- Screen: 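Genes required for cells to withstand methyl methanesulphonate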 (primary screen)
- System: Drosophila Kc167 cells
- Knock-down reagent: long dsRNA against Drosophila genes, about 0.25 µg dsRNA per well
- Duration: about 6 days: 3 days knock-down, then 3 days with or without MMS
- Conditions: methyl methanesulphonate 0.004% (w/v) for 3 days after knock-down
- Detection: 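ATP-dependent luminescence as a measure of live cells in MMS-exposed wells, quantile normalised within each plate, with replicate values also given as a mean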
- Scale: mean viability with MMS and viability with MMS: higher = more surviving cells after MMS
In all, the deposit lists about 23,000 reagents; below is an unselected part of those that have a named target and a result. 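Values are quantile-normalised luminescence on an arbitrary scale; higher means more cells surviving MMS.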 The numbers tell different reagents against one gene apart. Names joined by + are all predicted targets of the reagent.

gene	dsRNA no.	mean viability with MMS	viability with MMS, replicate 1	viability with MMS, replicate 2
CG13344	1	3.72e6	4.22e6	4.22e6
CG6576	1	3.62e6	4.08e6	4.14e6
CG12546	1	3.36e6	3.77e6	3.80e6
pnut (peanut)	1	3.49e6	3.92e6	3.97e6
CG12963	1	3.39e6	3.84e6	3.89e6
CG31251	1	3.45e6	3.99e6	3.85e6
Mst57Da (Male-specific RNA 57Da)	1	3.40e6	3.76e6	3.88e6
GstT4 (Glutathione S transferase T4)	1	3.46e6	4.00e6	4.07e6
CG7568	1	3.66e6	4.15e6	4.15e6
Mal-A8 (Maltase A8)	1	3.64e6	4.09e6	4.10e6
Pp4-19C (Protein phosphatase 19C)	1	3.49e6	3.95e6	3.98e6
Pp4-19C (Protein phosphatase 19C)	2	3.44e6	3.98e6	3.83e6
Pp4-19C (Protein phosphatase 19C)	3	3.63e6	4.21e6	4.05e6
SdhCL (Succinate dehydrogenase, subunit C-like)	1	3.46e6	3.90e6	3.98e6
COX7AL (Cytochrome c oxidase subunit 7A-like)	1	3.38e6	3.85e6	3.84e6
kuk (kugelkern)	1	3.78e6	4.22e6	4.24e6
vnc + CG42455	1	3.31e6	3.75e6	3.80e6
ppk29 (pickpocket 29)	1	3.65e6	4.24e6	4.03e6
CG5515	1	3.48e6	3.96e6	3.94e6
CG5793	1	3.46e6	3.88e6	3.98e6
CG33159	1	1.73e6	3.89e6	
anne (anne boleyn)	1	3.35e6	3.75e6	3.84e6
Obp83cd (Odorant-binding protein 83cd)	1	3.51e6	4.04e6	3.95e6
brat (brain tumor)	1	3.35e6	3.63e6	3.90e6
Herp (Homocysteine-induced endoplasmic reticulum protein)	1	3.56e6	4.08e6	3.99e6
grnd (grindelwald)	1	3.26e6	3.60e6	3.80e6
CG3792	1	3.63e6	4.08e6	4.11e6
CG11458	1	3.70e6	4.11e6	4.19e6
CG3548	1	3.53e6	3.97e6	3.93e6
Nepl12 (Neprilysin-like 12)	1	4.04e6	5.16e6	4.08e6
chn (charlatan)	1	3.32e6	3.75e6	3.75e6
lace	1	3.53e6	4.06e6	3.96e6
CG4653	1	3.90e6	3.69e6	3.84e6
CG4653	2	3.62e6	4.15e6	4.02e6
Uck (Uridine-cytidine kinase)	1	3.45e6	3.92e6	3.90e6
Uck (Uridine-cytidine kinase)	2	3.52e6	3.99e6	3.98e6
Alg10 (ALG10 alpha-1,2-glucosyltransferase)	1	3.58e6	4.01e6	4.09e6
mRpS16 (mitochondrial ribosomal protein S16)	1	3.42e6	4.02e6	3.88e6
CG34292	1	3.66e6	4.17e6	4.10e6
CG42367	1	3.60e6	4.13e6	4.02e6
sgl (sugarless)	1	3.62e6	4.09e6	4.11e6
CG8004	1	3.58e6	4.05e6	4.07e6
CG13288	1	3.51e6	3.87e6	4.10e6
CG12511	1	3.78e6	4.38e6	4.06e6
Pp1-87B (Protein phosphatase 1 at 87B)	1	3.08e6	3.60e6	3.65e6
Pp1-87B (Protein phosphatase 1 at 87B)	2	3.56e6	4.02e6	4.08e6
Best3 (Bestrophin 3)	1	3.37e6	3.86e6	3.71e6
snama (something that sticks like glue)	1	3.44e6	3.81e6	3.91e6
CG4896	1	3.66e6	4.10e6	4.24e6
Cep89 (Centrosomal protein 89kDa)	1	3.46e6	3.99e6	3.98e6
CG8534	1	3.59e6	4.03e6	4.07e6
CG11638	1	3.72e6	4.07e6	4.32e6
CG11638	2	3.76e6	4.23e6	4.23e6
Pgm1 (Phosphoglucose mutase 1)	1	3.58e6	4.05e6	4.06e6
Paris (Parkin Interacting Substrate)	1	3.15e6	3.56e6	3.38e6
ifc (infertile crescent)	1	3.59e6	3.95e6	4.21e6
tko (technical knockout)	1	3.46e6	3.99e6	3.85e6
indra	1	3.68e6	4.10e6	4.25e6
Mmp1 (Matrix metalloproteinase 1)	1	3.35e6	3.74e6	3.77e6
cad (caudal)	1	2.55e6	3.40e6	2.10e6
cad (caudal)	2	3.58e6	3.99e6	4.15e6
zyd (zydeco)	1	3.56e6	3.99e6	4.08e6
CG33301	1	3.44e6	3.82e6	3.96e6
SmydA-4 (SET and MYND domain containing, arthropod-specific, member 4)	1	3.63e6	4.04e6	4.17e6
SmydA-4 (SET and MYND domain containing, arthropod-specific, member 4)	2	3.72e6	4.22e6	4.12e6
TrxT (Thioredoxin T)	1	3.52e6	3.97e6	4.00e6
TrxT (Thioredoxin T)	2	3.45e6	3.98e6	3.87e6
CG12268	1	3.57e6	4.02e6	4.08e6

Targets listed so far whose target name starts with T or t:
gene	dsRNA no.	mean viability with MMS	viability with MMS, replicate 1	viability with MMS, replicate 2
tko (technical knockout)	1	3.46e6	3.99e6	3.85e6
TrxT (Thioredoxin T)	1	3.52e6	3.97e6	4.00e6
TrxT (Thioredoxin T)	2	3.45e6	3.98e6	3.87e6
